Data taken from paper PMC10517567.
Results are given in words; binding and its absence hold for the method and conditions named. In cells and extracts the contact can be indirect. Some entries that bind do so weakly or less than the wild type. For some assays here: Tags and fused reporters may be left off the sequences shown.

Chains of the proteins cited; added tags and fusions are not shown.
UniProt P35222: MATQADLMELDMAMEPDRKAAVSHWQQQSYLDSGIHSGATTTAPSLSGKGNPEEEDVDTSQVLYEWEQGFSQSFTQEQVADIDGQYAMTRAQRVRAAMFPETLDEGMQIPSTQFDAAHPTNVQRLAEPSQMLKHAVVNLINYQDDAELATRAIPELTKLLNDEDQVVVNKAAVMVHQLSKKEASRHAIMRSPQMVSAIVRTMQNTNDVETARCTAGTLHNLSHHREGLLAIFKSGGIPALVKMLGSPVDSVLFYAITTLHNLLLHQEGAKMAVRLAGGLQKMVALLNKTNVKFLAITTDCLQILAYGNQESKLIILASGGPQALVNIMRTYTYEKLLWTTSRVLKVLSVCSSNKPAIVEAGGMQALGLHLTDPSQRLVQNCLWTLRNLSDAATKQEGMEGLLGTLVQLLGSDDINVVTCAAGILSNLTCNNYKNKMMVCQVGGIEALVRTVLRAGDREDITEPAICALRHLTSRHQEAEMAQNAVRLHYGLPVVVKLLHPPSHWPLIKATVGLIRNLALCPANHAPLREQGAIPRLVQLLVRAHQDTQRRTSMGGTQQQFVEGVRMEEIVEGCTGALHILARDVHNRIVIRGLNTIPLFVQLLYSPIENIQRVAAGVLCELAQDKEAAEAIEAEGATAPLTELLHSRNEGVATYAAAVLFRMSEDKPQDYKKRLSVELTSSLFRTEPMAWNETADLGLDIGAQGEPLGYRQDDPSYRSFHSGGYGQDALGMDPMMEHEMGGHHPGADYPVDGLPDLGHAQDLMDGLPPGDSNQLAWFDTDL

T1: Flag-UCHL3 (ubiquitin C-terminal hydrolase L3) (human (cDNA from 293 T cells)) (UniProt P15374)
T1 sequence: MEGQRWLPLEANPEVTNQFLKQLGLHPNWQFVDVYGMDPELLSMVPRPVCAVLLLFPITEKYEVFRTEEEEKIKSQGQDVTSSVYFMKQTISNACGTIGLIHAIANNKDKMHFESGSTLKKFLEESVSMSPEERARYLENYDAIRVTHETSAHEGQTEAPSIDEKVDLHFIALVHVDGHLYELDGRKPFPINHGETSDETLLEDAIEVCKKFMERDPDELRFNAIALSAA

B1: UCHL3, endogenous in T24 cells (enzyme, UniProt P15374 1-230)
chain: T1 sequence

How the values were obtained:
[1] = target: T1, Flag-UCHL3 (ubiquitin C-terminal hydrolase L3) (human (cDNA from 293 T cells)); assay: co-IP; Flag-UCHL3 and HA-CTNNB1 coexpressed in 293 T cells; immunoprecipitation with anti-Flag; IP lysis buffer 30 mM Tris-HCl pH 7.4, 150 mM NaCl, 1% NP-40; G-agarose beads precoated with antibody, 4 °C, 6 h; Western blot
[2] = target: CTNNB1, endogenous in T24 cells (human (endogenous in T24)) (UniProt P35222); assay: co-IP; endogenous proteins in T24 cells; immunoprecipitation with anti-CTNNB1 followed by immunoblotting with anti-UCHL3

Molecule	binding [1]	binding [2]
HA-CTNNB1 (catenin beta 1) (from UniProt P35222 1-781)	binds	–
B1	–	binds
